Reference: publication PMC10011588, “Conformational transitions and allosteric modulation in a heteromeric glycine receptor” (Nature Communications, 2023)
These are yes or no findings as the source states them, for the method shown. Some results given as binding are weak or reduced against the parent protein; the word gives no strength.

Target: zebrafish glycine receptor α1 subunit (ZF-α1GlyR), full length (zebrafish) (UniProt O93430)
Experiment: cryo-EM structure; αβGlyR-Geph-E sample co-expressed in Sf9 and co-purified in DDM, vitrified on graphene-oxide grids with 100 µM strychnine, 1 mM glycine, or 1 mM glycine and 20 µM ivermectin; no fiduciary marker

B1: zebrafish glycine receptor α1 subunit (ZF-α1GlyR), full length (receptor, UniProt O93430 25-444, looked up)
chain: ARKAASPMPPSEFLDKLMGKVSGYDARIRPNFKGPPVNVTCNIFINSFGSIAETTMDYRVNIFLRQQWNDPRLAYSEYPDDSLDLDPSMLDSIWKPDLFFANEKGANFHEVTTDNKLLRISKNGNVLYSIRITLVLACPMDLKNFPMDVQTCIMQLESFGYTMNDLIFEWDEKGAVQVADGLTLPQFILKEEKDLRYCTKHYNTGKFTCIEARFHLERQMGYYLIQMYIPSLLIVILSWVSFWINMDAAPARVGLGITTVLTMTTQSSGSRASLPKVSYVKAIDIWMAVCLLFVFSALLEYAAVNFIARQHKELLRFQRRRRHLKEDEAGDGRFSFAAYGMGPACLQAKDGMAIKGNNNNAPTSTNPPEKTVEEMRKLFISRAKRIDTVSRVAFPLVFLIFNIFYWITYKIIRSEDIHKQ
modifications: N-glycan at N62
notes: glycine receptor α1 subunit, zebrafish, NCBI NP_571477.1, codon-optimised full-length gene; Four copies stand in the αβGlyR heteropentamer (4α:1β); The full-length gene was expressed; also called αGlyR; GlyRα1; source: Sf9 (ExpiSf9) cells, baculovirus (pFastBacDual, p10 promoter), co-expressed with βBGlyR and Geph-E; not shown: 8x His (after a thrombin site LVPRGS), C-terminal, kept
  binding: binds
